Values from PubChem BioAssay AID602196 (INSERM, 2012)
Screen: 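Knock-downs that protect lung cancer cells from cisplatin or sensitise them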. Cells: human A549 lung cancer cells. Knock-down reagent: siRNA pair against human genes. Timing: 48 h transfection before cisplatin; time from cisplatin to read-out not stated. Treatment: cisplatin at a dose killing half of control-siRNA cells; exact dose and duration not given. Measured: 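Shift in cisplatin death relative to control siRNA, from -50 (all cells die) to +50 (no cells die); siRNAs harmful on their own scored 0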. Scale: two-siRNA summed score (-2 to +2): higher = both siRNAs protect from cisplatin killing; -2 means both sensitise. Active means: 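siRNAs harmful alone (LDH or WST-1) get 0; others get +1 for less and -1 for more cisplatin killing; genes are active when the two siRNAs give the same sign, summing to ±2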. Calls: active = both siRNAs shift cisplatin killing the same way; inactive = no consistent shift, or siRNA harmful alone.
Shown is an unselected part of about 23,000 deposited reagents. 455 of all reagents (2%) count as active. 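Active includes both protection and sensitisation; some change values fall well beyond the stated -50 to +50 range.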 Not all columns of the deposit are shown. Not given: the amount of reagent.

DEFB132
- two-siRNA summed score (-2 to +2): 1
- Call: inactive

TMEM41A
- two-siRNA summed score (-2 to +2): 0
- Call: inactive

TMEM126A
- two-siRNA summed score (-2 to +2): 0
- Call: inactive

LOC150356
- two-siRNA summed score (-2 to +2): 0
- Call: inactive

COX7A2
- two-siRNA summed score (-2 to +2): 2
- Call: active

TSPAN4
- two-siRNA summed score (-2 to +2): 1
- Call: inactive

SESN3
- two-siRNA summed score (-2 to +2): 1
- Call: inactive

CLCNKB
- two-siRNA summed score (-2 to +2): -1
- Call: inactive

LOC442518
- two-siRNA summed score (-2 to +2): 0
- Call: inactive

LINC01257
- two-siRNA summed score (-2 to +2): 0
- Call: inactive

SIRT5
- two-siRNA summed score (-2 to +2): 0
- Call: inactive

SRSF11
- two-siRNA summed score (-2 to +2): -1
- Call: inactive

RAB5A
- two-siRNA summed score (-2 to +2): 0
- Call: inactive

PTCH1
- two-siRNA summed score (-2 to +2): 0
- Call: inactive

WDR18
- two-siRNA summed score (-2 to +2): -1
- Call: inactive

TNPO3
- two-siRNA summed score (-2 to +2): 0
- Call: inactive

TMC4
- two-siRNA summed score (-2 to +2): 0
- Call: inactive

APBB1
- two-siRNA summed score (-2 to +2): 1
- Call: inactive

UGT2B15
- two-siRNA summed score (-2 to +2): -1
- Call: inactive

DKFZP434B061
- two-siRNA summed score (-2 to +2): 0
- Call: inactive

PCDHGA9
- two-siRNA summed score (-2 to +2): 1
- Call: inactive

LOC221875
- two-siRNA summed score (-2 to +2): 1
- Call: inactive

STYK1
- two-siRNA summed score (-2 to +2): 0
- Call: inactive

RPL7
- two-siRNA summed score (-2 to +2): 0
- Call: inactive

SETD3
- two-siRNA summed score (-2 to +2): 0
- Call: inactive

OR8H3
- two-siRNA summed score (-2 to +2): 0
- Call: inactive

Look-ups from the entries so far.
Entry of TSPAN4 in “Call”: inactive
For “Call”, RPL7 reads inactive
For “two-siRNA summed score (-2 to +2)”, LOC442518 reads 0
Under “two-siRNA summed score (-2 to +2)”, TMEM126A has 0
For “two-siRNA summed score (-2 to +2)”, DEFB132 is entered as 1
Result of PTCH1 in “Call”: inactive

More results follow.
BMP2
- two-siRNA summed score (-2 to +2): 1
- Call: inactive

ARID5B
- two-siRNA summed score (-2 to +2): 0
- Call: inactive

LOC255275
- two-siRNA summed score (-2 to +2): 0
- Call: inactive

KRT34
- two-siRNA summed score (-2 to +2): 0
- Call: inactive

MCM10
- two-siRNA summed score (-2 to +2): 0
- Call: inactive

MAN2B2
- two-siRNA summed score (-2 to +2): 0
- Call: inactive

UBXN8
- two-siRNA summed score (-2 to +2): 0
- Call: inactive

TUBB1
- two-siRNA summed score (-2 to +2): 0
- Call: inactive

LOC92129
- two-siRNA summed score (-2 to +2): 0
- Call: inactive

WDR33
- two-siRNA summed score (-2 to +2): 0
- Call: inactive

ATP5PDP3
- two-siRNA summed score (-2 to +2): 0
- Call: inactive

MRPL15
- two-siRNA summed score (-2 to +2): 0
- Call: inactive

TM7SF3
- two-siRNA summed score (-2 to +2): 0
- Call: inactive

RHOC
- two-siRNA summed score (-2 to +2): 2
- Call: active
